# The list shows a part of the results.
# Chains of the proteins cited; added tags and fusions are not shown. Lines headed by an entry give the natural chain unless they say otherwise; changes in a name come on top.
# UniProt O00142: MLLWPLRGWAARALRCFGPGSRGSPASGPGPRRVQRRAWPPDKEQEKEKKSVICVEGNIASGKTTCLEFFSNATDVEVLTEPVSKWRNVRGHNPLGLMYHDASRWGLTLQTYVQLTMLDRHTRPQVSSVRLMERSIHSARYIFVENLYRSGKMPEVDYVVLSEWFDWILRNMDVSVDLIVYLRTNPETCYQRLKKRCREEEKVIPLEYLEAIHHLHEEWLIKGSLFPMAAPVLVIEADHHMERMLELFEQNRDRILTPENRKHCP
# UniProt P36897: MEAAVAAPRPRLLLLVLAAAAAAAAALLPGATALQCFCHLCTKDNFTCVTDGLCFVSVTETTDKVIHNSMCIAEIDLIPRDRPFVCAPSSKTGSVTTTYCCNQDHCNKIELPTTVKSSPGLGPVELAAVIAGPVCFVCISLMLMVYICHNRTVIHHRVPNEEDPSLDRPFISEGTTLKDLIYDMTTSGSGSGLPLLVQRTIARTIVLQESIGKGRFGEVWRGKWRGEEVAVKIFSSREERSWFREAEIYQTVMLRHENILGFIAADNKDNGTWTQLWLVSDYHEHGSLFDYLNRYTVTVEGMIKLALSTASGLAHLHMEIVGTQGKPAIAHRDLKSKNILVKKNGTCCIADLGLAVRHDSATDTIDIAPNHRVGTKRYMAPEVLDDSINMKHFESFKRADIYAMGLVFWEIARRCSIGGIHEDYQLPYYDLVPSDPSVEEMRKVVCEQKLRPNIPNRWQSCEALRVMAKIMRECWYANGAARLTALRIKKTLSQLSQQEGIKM
# UniProt Q9UPU7: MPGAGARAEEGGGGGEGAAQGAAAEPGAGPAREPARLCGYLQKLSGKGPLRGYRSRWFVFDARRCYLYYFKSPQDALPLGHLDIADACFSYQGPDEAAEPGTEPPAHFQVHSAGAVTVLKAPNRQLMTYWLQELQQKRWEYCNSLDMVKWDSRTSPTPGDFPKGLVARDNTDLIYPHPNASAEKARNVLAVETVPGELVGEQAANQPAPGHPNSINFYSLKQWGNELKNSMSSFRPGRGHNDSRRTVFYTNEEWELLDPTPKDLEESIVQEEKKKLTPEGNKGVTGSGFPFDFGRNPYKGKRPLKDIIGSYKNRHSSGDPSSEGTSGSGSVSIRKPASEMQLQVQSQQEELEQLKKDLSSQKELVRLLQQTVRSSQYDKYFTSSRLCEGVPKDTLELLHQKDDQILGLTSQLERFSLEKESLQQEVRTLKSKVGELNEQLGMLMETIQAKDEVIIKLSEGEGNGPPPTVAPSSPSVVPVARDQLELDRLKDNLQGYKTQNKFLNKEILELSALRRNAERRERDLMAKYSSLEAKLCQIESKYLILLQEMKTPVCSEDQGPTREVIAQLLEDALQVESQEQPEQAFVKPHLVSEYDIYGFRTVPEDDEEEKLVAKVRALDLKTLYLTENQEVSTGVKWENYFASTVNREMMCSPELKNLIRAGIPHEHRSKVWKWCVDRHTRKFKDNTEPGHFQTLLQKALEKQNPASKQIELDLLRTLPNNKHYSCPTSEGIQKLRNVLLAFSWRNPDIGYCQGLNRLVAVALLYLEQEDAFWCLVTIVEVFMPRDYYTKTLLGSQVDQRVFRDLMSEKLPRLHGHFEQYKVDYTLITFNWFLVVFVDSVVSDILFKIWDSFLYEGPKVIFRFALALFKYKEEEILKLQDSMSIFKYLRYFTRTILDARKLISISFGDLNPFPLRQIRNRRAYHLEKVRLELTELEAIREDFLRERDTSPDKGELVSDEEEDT
# UniProt P62072: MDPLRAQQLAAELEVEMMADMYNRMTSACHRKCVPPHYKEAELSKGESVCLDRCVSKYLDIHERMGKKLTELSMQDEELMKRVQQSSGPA
# UniProt Q5VWP2: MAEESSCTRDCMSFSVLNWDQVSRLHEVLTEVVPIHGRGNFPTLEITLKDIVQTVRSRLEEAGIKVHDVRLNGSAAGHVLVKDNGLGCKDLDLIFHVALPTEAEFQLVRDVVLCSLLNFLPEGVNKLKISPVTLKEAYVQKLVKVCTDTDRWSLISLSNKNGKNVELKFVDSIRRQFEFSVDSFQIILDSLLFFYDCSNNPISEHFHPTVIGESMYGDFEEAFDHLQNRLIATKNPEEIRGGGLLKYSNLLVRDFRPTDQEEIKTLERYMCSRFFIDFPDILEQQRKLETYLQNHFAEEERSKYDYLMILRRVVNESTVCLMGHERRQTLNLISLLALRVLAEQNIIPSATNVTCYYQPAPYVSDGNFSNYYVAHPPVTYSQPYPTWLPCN
# UniProt Q96RS0: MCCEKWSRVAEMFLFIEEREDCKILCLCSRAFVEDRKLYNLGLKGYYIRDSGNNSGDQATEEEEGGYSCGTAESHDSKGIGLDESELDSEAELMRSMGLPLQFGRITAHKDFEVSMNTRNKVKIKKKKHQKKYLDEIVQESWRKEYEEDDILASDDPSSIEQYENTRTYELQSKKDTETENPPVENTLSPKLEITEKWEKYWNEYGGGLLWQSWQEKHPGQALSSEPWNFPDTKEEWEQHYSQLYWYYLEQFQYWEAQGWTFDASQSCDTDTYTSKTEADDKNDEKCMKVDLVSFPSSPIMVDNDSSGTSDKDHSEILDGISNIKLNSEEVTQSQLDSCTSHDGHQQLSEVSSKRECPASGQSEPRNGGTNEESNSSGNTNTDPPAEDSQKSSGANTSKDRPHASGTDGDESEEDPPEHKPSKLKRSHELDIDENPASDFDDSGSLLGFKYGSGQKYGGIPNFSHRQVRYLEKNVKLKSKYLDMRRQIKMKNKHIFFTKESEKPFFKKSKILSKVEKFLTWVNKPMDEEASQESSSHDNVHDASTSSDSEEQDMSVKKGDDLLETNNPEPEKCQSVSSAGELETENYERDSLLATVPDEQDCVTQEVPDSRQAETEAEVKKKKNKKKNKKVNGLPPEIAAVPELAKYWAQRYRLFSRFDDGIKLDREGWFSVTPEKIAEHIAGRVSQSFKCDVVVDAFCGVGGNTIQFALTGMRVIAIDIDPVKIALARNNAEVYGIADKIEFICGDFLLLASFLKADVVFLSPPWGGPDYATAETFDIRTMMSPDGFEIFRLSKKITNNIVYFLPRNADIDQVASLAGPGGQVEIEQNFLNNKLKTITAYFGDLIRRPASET
# UniProt O75663: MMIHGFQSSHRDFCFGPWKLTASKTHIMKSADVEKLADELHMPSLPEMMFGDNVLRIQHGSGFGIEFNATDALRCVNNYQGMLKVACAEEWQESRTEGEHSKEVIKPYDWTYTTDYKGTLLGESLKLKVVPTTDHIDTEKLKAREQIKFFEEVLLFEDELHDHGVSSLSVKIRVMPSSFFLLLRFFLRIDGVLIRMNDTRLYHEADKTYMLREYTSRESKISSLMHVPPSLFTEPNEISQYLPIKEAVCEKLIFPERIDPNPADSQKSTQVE
# UniProt Q07157: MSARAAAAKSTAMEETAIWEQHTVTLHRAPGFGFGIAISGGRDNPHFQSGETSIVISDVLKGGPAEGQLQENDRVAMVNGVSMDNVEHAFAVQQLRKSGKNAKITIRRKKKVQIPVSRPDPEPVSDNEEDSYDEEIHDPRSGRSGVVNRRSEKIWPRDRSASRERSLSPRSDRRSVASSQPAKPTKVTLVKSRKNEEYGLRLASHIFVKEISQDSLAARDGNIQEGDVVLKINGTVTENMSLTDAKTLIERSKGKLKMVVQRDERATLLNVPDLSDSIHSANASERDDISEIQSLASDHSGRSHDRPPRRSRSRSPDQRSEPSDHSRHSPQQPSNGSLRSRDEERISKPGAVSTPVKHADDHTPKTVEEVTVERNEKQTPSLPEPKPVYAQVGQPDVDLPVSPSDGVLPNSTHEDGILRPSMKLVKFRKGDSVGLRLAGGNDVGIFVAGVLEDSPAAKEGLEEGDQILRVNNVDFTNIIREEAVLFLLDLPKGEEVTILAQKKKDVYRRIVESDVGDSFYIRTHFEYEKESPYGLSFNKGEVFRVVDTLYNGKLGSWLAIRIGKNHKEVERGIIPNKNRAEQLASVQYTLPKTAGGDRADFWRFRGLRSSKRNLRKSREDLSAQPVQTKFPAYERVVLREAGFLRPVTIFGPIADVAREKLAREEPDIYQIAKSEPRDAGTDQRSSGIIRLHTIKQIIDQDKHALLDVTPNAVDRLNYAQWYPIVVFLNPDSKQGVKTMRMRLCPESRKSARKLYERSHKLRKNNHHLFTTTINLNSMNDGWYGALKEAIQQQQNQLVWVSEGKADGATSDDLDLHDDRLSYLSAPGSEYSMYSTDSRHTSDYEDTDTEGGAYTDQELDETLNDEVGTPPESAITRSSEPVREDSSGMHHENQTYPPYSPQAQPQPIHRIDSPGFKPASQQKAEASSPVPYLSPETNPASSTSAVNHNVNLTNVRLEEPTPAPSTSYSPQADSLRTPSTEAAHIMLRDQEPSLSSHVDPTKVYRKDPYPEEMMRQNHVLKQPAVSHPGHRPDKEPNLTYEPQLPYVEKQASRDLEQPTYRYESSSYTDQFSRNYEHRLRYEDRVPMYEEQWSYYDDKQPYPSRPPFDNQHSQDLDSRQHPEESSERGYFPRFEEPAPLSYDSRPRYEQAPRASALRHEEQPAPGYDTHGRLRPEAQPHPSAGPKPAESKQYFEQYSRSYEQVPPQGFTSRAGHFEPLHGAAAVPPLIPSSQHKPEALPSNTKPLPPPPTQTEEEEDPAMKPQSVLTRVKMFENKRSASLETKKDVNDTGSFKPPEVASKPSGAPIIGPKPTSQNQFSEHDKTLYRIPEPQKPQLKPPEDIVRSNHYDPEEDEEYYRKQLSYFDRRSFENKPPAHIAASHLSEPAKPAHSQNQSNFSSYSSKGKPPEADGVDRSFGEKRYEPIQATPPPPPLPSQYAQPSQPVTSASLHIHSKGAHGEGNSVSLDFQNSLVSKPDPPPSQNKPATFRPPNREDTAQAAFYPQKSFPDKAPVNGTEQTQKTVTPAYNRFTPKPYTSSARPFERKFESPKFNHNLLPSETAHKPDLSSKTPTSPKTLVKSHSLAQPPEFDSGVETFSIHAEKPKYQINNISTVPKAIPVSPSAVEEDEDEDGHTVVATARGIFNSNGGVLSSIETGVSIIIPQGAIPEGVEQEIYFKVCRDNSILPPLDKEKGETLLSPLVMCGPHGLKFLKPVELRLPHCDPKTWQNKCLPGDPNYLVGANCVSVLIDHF
# UniProt Q15582: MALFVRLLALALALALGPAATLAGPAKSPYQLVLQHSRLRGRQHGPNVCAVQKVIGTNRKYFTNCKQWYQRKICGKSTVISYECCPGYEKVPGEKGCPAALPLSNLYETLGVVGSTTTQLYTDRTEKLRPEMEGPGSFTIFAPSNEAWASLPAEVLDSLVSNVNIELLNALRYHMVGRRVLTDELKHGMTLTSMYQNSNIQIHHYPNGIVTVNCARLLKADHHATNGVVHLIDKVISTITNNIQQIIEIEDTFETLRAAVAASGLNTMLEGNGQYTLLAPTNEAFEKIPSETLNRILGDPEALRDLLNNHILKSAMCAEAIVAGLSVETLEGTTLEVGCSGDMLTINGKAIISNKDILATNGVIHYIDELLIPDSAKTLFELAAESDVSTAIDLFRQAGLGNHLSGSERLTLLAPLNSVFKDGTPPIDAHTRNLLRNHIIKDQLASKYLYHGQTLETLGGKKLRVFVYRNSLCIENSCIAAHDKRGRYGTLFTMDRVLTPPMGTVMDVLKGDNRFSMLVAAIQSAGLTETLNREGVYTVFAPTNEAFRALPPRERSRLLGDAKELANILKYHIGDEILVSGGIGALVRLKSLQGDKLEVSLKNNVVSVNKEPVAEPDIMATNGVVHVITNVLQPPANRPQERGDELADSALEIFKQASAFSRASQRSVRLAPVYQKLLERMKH
# UniProt Q92609: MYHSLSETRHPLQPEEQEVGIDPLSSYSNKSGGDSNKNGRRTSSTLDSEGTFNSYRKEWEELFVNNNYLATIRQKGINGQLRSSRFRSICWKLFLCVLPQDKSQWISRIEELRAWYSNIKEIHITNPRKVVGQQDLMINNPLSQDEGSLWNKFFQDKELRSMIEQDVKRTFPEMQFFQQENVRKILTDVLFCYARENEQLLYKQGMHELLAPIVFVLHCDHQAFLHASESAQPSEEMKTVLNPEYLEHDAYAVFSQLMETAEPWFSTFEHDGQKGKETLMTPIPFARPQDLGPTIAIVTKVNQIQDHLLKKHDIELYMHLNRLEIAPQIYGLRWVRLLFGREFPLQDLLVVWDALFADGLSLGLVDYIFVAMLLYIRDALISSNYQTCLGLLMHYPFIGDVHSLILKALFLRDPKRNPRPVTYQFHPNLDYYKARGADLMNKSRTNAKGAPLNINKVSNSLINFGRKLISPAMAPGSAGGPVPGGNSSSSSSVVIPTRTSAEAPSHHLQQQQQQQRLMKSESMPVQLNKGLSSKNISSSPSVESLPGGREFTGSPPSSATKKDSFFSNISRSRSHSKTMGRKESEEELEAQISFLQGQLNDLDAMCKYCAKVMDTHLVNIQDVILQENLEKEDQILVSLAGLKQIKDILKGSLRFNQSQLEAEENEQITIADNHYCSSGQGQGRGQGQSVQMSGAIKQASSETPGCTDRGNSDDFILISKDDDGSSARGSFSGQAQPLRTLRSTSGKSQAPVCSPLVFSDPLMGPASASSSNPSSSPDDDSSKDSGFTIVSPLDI
# Key:
# Test in all cases: log2 fold change, soluble protein after heating vs DMSO (PISA); higher = thermal stabilisation; K562 cells, 10 uM, 30 min; active = over 0.2 and 3.5 SD of the protein, either way, in both replicates (recomputed)
# [1] = compound: COC1=CC=C(C=C1)CN2C=CC3=C2C=C(C=C3)C(=O)NO
# Method in brief: (§1)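 K562 cells at 2×10^6 cells/mL were exposed to 10 μM compound for 30 min, then aliquots were heated for 3 min across 48°C-58°C, pooled, and extracted in PBS containing 0.5% NP-40 at 4°C. The supernatant after 21,000xg for 90 min was taken as soluble protein and measured by TMTpro 16plex LC-MS/MS with channel sums equalised. Thermal stability is reported relative to control samples, with values from duplicates. Fold changes are given on a log2 scale.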
# [2] = compound: CON(C)C(=O)N1N=C(c2cc(F)ccc2F)S[C@@]1(CCCN)c1ccccc1 [filanesib]
# Method in brief: as §1
# [3] = compound: CO[C@H]1C[C@@H]2CC[C@@H](C)[C@@](O)(O2)C(=O)C(=O)N2CCCC[C@H]2C(=O)O[C@H]([C@H](C)C[C@@H]2CC[C@H](n3cnnn3)[C@H](OC)C2)CC(=O)[C@H](C)/C=C(\C)[C@@H](O)[C@@H](OC)C(=O)[C@H](C)C[C@H](C)/C=C/C=C/C=C/1C [zotarolimus]
# Method in brief: as §1
# [4] = compound: COc1cc(C(=O)O)ccc1NC(=O)[C@@H]1N[C@@H](CC(C)(C)C)[C@](C#N)(c2ccc(Cl)cc2F)[C@H]1c1cccc(Cl)c1F [idasanutlin]
# Method in brief: as §1
# [5] = compound: COc1cc(Nc2ncc3c(n2)-c2ccc(Cl)cc2C(c2c(F)cccc2OC)=NC3)ccc1C(=O)O [alisertib]
# Method in brief: as §1
# [6] = compound: COc1cc2ncnc(Nc3ccc(F)c(Cl)c3)c2cc1OCCCN1CCOCC1 [gefitinib]
# Method in brief: as §1
# [7] = compound: COc1cccc2cc(-c3nc([C@H]4CC[C@H](C(=O)O)CC4)n4ncnc(N)c34)[nH]c12
# Method in brief: as §1
# [8] = compound: CS(=O)(=O)N1CCN(Cc2cc3nc(-c4cccc5[nH]ncc45)nc(N4CCOCC4)c3s2)CC1 [pictilisib]
# Method in brief: as §1
# [9] = compound: CS(=O)(=O)c1ccc(-c2cnc(N)c(C(=O)Nc3ccccc3)n2)cc1
# Method in brief: as §1
# [10] = compound: C[C@@H](Oc1cc(-c2cnn(C3CCNCC3)c2)cnc1N)c1c(Cl)ccc(F)c1Cl [crizotinib]
# Method in brief: as §1
# [11] = compound: C[C@@H]1COCCN1C2=NC(=NC(=C2)C3(CC3)S(=O)(=O)C)C4=C5C=CNC5=CC=C4
# Method in brief: as §1
# [12] = compound: C[C@H](C1=CC=C(C=C1)C(=O)NC2=C3C=CNC3=NC=C2)N
# Method in brief: as §1
# [13] = compound: C[C@H](Nc1ncnc2nc[nH]c12)c1cc2cccc(Cl)c2c(=O)n1-c1ccccc1 [duvelisib]
# Method in brief: as §1
# [14] = compound: Cc1cc(Nc2cc(CN3CCOCC3)c3nc(C)c(Cc4ccc(Cl)cc4F)n3n2)n[nH]1 [gandotinib]
# Method in brief: as §1
# [15] = compound: Cc1cc(Nc2cc(N3CCN(C)CC3)nc(Sc3ccc(NC(=O)C4CC4)cc3)n2)n[nH]1 [tozasertib]
# Method in brief: as §1
# [16] = compound: Cc1cc(SCc2sc(-c3ccc(C(F)(F)F)cc3)nc2C)ccc1OCC(=O)O
# Method in brief: as §1
# [17] = compound: Cc1ccc(-n2nc(C(C)(C)C)cc2NC(=O)Nc2ccc(OCCN3CCOCC3)c3ccccc23)cc1 [doramapimod]
# Method in brief: as §1
# [18] = compound: Cc1ccc(C(=O)N(CCCN)[C@@H](c2nc3cc(Cl)ccc3c(=O)n2Cc2ccccc2)C(C)C)cc1 [ispinesib]
# Method in brief: as §1
# [19] = compound: COc1cc2nc(-c3cc(F)ccc3O)nc(N[C@@H]3CNC[C@H]3C(C)(C)O)c2cc1OC
# Method in brief: as §1
# [20] = compound: CS(=O)(=O)CCNCc1ccc(-c2ccc3ncnc(Nc4ccc(OCc5cccc(F)c5)c(Cl)c4)c3c2)o1 [lapatinib]
# Method in brief: as §1
Target,log2 fold change [1],log2 fold change [2],log2 fold change [3],log2 fold change [4],log2 fold change [5],log2 fold change [6],log2 fold change [7],log2 fold change [8],log2 fold change [9],log2 fold change [10],log2 fold change [11],log2 fold change [12],log2 fold change [13],log2 fold change [14],log2 fold change [15],log2 fold change [16],log2 fold change [17],log2 fold change [18],log2 fold change [19],log2 fold change [20]
TK2 isoform 6 (UniProt O00142),inactive: -0.069,inactive: -0.012,inactive: -0.196,inactive: 0.126,inactive: 0.046,inactive: -0.055,inactive: 0.101,inactive: 0.127,inactive: 0.135,inactive: 0.029,inactive: -0.018,inactive: 0.189,inactive: 0.132,inactive: 0.006,inactive: -0.087,inactive: -0.204,inactive: -0.104,inactive: -0.025,,
TGFBR1 isoform 2 (UniProt P36897),inactive: 0.004,inactive: -0.001,inactive: -0.217,inactive: -0.007,inactive: -0.05,inactive: -0.029,inactive: -0.041,inactive: -0.073,active: 0.254,inactive: 0.133,inactive: -0.031,inactive: 0.024,,inactive: 0.101,,inactive: 0.014,inactive: -0.005,inactive: -0.156,inactive: 0.06,inactive: 0.063
TFCP2 (UniProt Q12800),inactive: -0.062,inactive: 0.04,inactive: 0.118,,,inactive: -0.023,,inactive: 0.05,inactive: -0.087,inactive: -0.118,inactive: -0.11,inactive: 0.178,inactive: -0.126,inactive: 0.039,,inactive: 0.082,inactive: 0.17,inactive: 0.053,,
TBC1D23 (UniProt Q9NUY8),inactive: 0.07,inactive: -0.184,inactive: -0.002,inactive: 0.068,inactive: 0.023,inactive: -0.058,inactive: 0.021,inactive: -0.067,inactive: -0.026,inactive: -0.019,inactive: 0.022,inactive: 0,,inactive: -0.205,,inactive: 0.028,inactive: -0.027,active: -0.48,inactive: -0.19,inactive: -0.053
TELO2 (UniProt Q9Y4R8),inactive: -0.026,inactive: 0.113,inactive: 0.098,inactive: -0.103,inactive: -0.16,inactive: 0.004,inactive: -0.125,inactive: -0.023,inactive: -0.022,inactive: -0.055,inactive: 0.013,inactive: 0.233,,inactive: -0.198,,inactive: 0.176,inactive: 0.094,inactive: -0.136,inactive: -0.122,inactive: 0.007
TBC1D2B (UniProt Q9UPU7),inactive: -0.079,inactive: 0.083,,,inactive: -0.06,inactive: 0.133,inactive: 0.004,,inactive: 0.045,inactive: -0.009,,,inactive: 0.007,,,inactive: 0.162,inactive: 0.059,,,
TIMM10 (UniProt P62072),inactive: -0.043,inactive: -0.038,inactive: -0.023,inactive: -0.019,inactive: 0.01,inactive: 0.015,inactive: 0.03,inactive: 0.008,inactive: -0.035,inactive: 0.051,inactive: 0.099,inactive: -0.006,,inactive: 0.052,,inactive: 0.027,inactive: 0.021,inactive: 0.103,inactive: -0.12,inactive: -0.026
TCOF1 isoform 6 (UniProt Q13428),inactive: -0.318,inactive: -0.087,inactive: -0.062,,inactive: -0.263,inactive: 0.028,inactive: -0.105,,inactive: -0.07,inactive: 0.032,,inactive: -0.025,,,,,inactive: -0.068,inactive: -0.122,,
TENT5C (UniProt Q5VWP2),inactive: -0.133,inactive: 0.049,active: -0.56,,inactive: 0,inactive: 0.002,inactive: -0.021,inactive: 0.168,inactive: 0.044,inactive: 0.043,,inactive: 0.011,,inactive: 0.142,,inactive: 0.174,inactive: 0.061,inactive: 0.055,inactive: 0.075,inactive: -0.092
THADA (UniProt Q6YHU6),inactive: 0.019,inactive: -0.18,inactive: -0.008,inactive: -0.081,inactive: -0.022,inactive: -0.031,inactive: 0.014,inactive: -0.014,inactive: 0.01,inactive: -0.168,inactive: 0.05,inactive: 0.018,,active: -0.239,,inactive: 0.083,inactive: 0.001,inactive: -0.133,inactive: -0.03,inactive: 0.012
TBC1D9B (UniProt Q66K14),inactive: -0.037,inactive: 0.151,inactive: 0.042,inactive: -0.003,inactive: 0.03,inactive: -0.072,inactive: 0.03,inactive: 0.068,inactive: 0.041,inactive: -0.084,inactive: 0.016,inactive: 0.008,,inactive: 0.024,,inactive: 0.072,inactive: 0.007,inactive: -0.127,inactive: -0.026,inactive: -0.031
TCF25 (UniProt Q9BQ70),inactive: 0.038,,inactive: -0.036,inactive: -0.366,inactive: 0.147,,inactive: -0.013,inactive: -0.08,,inactive: -0.111,inactive: -0.095,inactive: 0.164,,inactive: -0.159,inactive: 0.201,,inactive: -0.008,inactive: 0.025,inactive: -0.021,inactive: 0.101
TGS1 (UniProt Q96RS0),inactive: -0.074,inactive: -0.064,inactive: 0.123,inactive: -0.005,inactive: -0.108,inactive: 0.082,inactive: -0.037,,inactive: -0.031,inactive: -0.099,inactive: -0.07,inactive: 0.301,inactive: -0.048,,inactive: -0.02,inactive: 0.053,inactive: -0.023,inactive: -0.173,inactive: -0.006,inactive: 0.061
TIPRL (UniProt O75663),inactive: 0.011,inactive: -0.063,inactive: -0.013,inactive: -0.104,inactive: 0.014,inactive: -0.034,inactive: -0.009,inactive: 0.034,inactive: 0.065,inactive: -0.167,inactive: 0.143,inactive: -0.023,,inactive: -0.159,,inactive: 0.065,inactive: -0.034,inactive: -0.055,inactive: 0.043,inactive: -0.009
TJP1 (UniProt Q07157),inactive: 0.02,inactive: 0.035,inactive: 0.03,inactive: 0.001,inactive: -0.059,inactive: 0.038,inactive: 0.055,inactive: 0.017,inactive: 0.004,inactive: -0.016,inactive: 0.044,inactive: -0.06,,inactive: -0.124,,inactive: 0.061,inactive: -0.01,inactive: 0.026,inactive: 0.005,inactive: -0.006
TEX30 (UniProt Q5JUR7),inactive: -0.063,,inactive: 0.031,inactive: -0.02,inactive: 0.029,inactive: -0.079,inactive: 0.031,inactive: 0.057,,inactive: -0.206,inactive: 0.073,inactive: 0.044,,inactive: -0.292,,inactive: 0.067,inactive: 0.059,inactive: -0.295,inactive: 0.07,inactive: -0.029
TGFBI (UniProt Q15582),inactive: 0.063,inactive: -0.054,active: -0.892,inactive: 0.084,inactive: -0.012,inactive: -0.029,inactive: 0.15,inactive: -0.083,inactive: -0.021,inactive: -0.047,inactive: 0.215,inactive: 0.181,,inactive: -0.451,,inactive: 0.043,inactive: -0.182,inactive: -0.159,inactive: -0.003,inactive: 0.018
TEX2 isoform 2 (UniProt Q8IWB9),inactive: -0.096,inactive: 0.153,inactive: 0.036,inactive: 0.037,inactive: -0.048,,inactive: -0.125,inactive: -0.005,inactive: -0.001,inactive: 0.136,inactive: -0.016,inactive: -0.084,inactive: -0.014,inactive: -0.059,inactive: 0.067,inactive: 0.076,inactive: 0.034,inactive: 0.084,inactive: 0.257,inactive: -0.013
TBC1D5 isoform 2 (UniProt Q92609),inactive: 0.048,inactive: -0.01,inactive: 0.048,inactive: -0.052,inactive: -0.021,inactive: -0.031,inactive: 0.003,inactive: -0.091,inactive: 0,inactive: -0.24,inactive: -0.003,inactive: 0.084,,inactive: -0.255,,inactive: 0.142,inactive: -0.031,inactive: -0.268,inactive: 0.006,inactive: -0.062

# Limited to log2 fold change [1] and log2 fold change [2], for some of the entries so far:
Target,log2 fold change [1],log2 fold change [2]
TGFBR1 isoform 2 (UniProt P36897),inactive: 0.004,inactive: -0.001
TGFBI (UniProt Q15582),inactive: 0.063,inactive: -0.054
